According to patent publication US12037355B2, “Triterpene saponin analogues” (priority 2015, dated 2024):
Some entries share one result that the patent states for a list of compounds.

Experiment: Pilot pharmacology/toxicology study with Adacel, QS-21 and TiterQuil-1055
Conditions: groups of 5 mice, SC days 1 and 15, weighed daily; 50 mcg TiterQuil-1055, 20 mcg QS-21, Adacel 2.5 mcg pertussis toxin

With QS-21 [reference compound] the weight loss was 7-9%.
